Laboratory results published in article PMC10322693.
Results are given in words; binding and its absence hold for the method and conditions named. Binding seen in cells or lysates may run through a third protein. Some results given as binding are weak or reduced against the parent protein; the word gives no strength. Tags and fused reporters may be left off the sequences shown.

By UniProt entry, the sequences of proteins in these tests, tags left out.
UniProt Q9DBL9: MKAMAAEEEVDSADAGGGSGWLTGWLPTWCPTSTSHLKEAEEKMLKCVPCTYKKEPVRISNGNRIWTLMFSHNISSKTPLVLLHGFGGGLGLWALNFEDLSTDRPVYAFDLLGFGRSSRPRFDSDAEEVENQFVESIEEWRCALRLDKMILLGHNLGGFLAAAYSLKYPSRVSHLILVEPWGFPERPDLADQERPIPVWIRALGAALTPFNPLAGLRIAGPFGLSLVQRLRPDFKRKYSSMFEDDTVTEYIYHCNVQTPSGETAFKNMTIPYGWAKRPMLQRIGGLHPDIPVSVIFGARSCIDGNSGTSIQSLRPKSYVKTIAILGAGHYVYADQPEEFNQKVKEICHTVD

Assays:
[1] = target: T1, FLAG-PNPLA2 (mouse), overexpressed in HEK293T cells (mouse) (UniProt Q8BJ56); experiment: co-IP; HEK293T cells coexpressing His-CGI58 and FLAG-PNPLA2 or FLAG-PNPLA9; lysate in 100 mM NaCl, 50 mM Tris-HCl pH 7.2, 1% Triton X-100, 2 mM β-mercaptoethanol; IP with anti-FLAG overnight at 4°C, WB with anti-His
T1 sequence: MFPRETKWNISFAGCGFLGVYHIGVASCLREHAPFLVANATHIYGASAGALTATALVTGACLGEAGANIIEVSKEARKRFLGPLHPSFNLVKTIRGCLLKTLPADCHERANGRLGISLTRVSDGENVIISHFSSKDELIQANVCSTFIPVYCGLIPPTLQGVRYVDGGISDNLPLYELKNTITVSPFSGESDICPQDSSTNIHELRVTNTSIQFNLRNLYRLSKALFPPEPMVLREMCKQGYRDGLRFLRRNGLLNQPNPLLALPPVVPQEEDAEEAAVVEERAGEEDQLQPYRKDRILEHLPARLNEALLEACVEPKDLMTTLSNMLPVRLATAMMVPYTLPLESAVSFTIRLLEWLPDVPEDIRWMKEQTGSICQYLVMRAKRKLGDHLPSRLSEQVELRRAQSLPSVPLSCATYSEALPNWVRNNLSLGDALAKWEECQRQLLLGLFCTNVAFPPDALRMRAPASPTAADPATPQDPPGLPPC

[2] = target: T2, FLAG-PNPLA9 (mouse), overexpressed in HEK293T cells (mouse) (UniProt P97819); experiment: as above
T2 sequence: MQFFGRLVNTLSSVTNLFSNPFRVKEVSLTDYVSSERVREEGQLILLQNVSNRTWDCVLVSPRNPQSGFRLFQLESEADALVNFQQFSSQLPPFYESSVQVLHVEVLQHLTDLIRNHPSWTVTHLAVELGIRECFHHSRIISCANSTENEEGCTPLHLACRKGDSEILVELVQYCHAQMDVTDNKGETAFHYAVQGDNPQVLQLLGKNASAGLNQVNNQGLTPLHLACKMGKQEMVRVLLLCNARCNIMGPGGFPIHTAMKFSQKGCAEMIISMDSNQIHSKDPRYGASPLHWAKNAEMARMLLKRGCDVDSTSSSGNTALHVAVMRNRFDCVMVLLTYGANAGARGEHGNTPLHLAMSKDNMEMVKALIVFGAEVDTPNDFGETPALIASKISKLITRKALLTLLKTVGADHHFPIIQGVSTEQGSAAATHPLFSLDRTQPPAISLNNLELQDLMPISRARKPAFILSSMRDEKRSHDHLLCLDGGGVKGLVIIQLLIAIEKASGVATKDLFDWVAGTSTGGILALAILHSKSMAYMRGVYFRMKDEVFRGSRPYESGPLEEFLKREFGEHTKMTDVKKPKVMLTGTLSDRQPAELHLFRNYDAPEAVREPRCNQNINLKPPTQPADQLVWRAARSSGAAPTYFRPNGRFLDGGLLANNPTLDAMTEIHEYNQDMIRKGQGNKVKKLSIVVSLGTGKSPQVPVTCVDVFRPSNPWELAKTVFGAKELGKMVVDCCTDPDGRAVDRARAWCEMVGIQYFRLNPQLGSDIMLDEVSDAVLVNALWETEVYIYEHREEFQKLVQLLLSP

## His-CGI58 (mouse), overexpressed in HEK293T cells (from UniProt Q9DBL9 1-351)
[1]
  binding: binds
[2]
  binding: binds
